From patent publication US8563738B2, “Ligands for copper-catalyzed azide-alkyne cycloaddition reactions” (The Scripps Research Institute, priority 2007, dated 2013)
At least one structure is not confirmed: it was looked up by name or label, or the drawing left a doubt. Some of these results come from one statement about several compounds together.

Experiment: Solubility of ligands
Conditions: potassium salts

Compound	soluble in water
O=S(=O)(O)c1ccc2[nH]c(CN(Cc3nc4cc(S(=O)(=O)O)ccc4[nH]3)Cc3nc4cc(S(=O)(=O)O)ccc4[nH]3)nc2c1 [(BimH/S)3, reference compound]	at least 50 mM

Experiment: Ligand screening by reaction calorimetry (peak reaction power)
Conditions: concentrated conditions, range of ligand:Cu ratios
Excerpt: Reaction calorimetry was used to evaluate the relative merits of various ligands under practical conditions of organic synthesis, e.g., involving high concentrations of azide and alkyne reagents and low loadings of catalyst. After correction for instrumental heat transfer parameters, thermograms provide a direct real-time measure of reaction rate (power output); integration gives the overall time-vs.-completion curve. […] All such measurements were made in the same 4:1 DMSO:aqueous solvent as before, but at 65° C. rather than room temperature, in order to keep the product triazole in solution at the higher concentrations used.
Calorimetry was performed in an Omnical INSIGHT® 10-channel reaction calorimeter using 40 mL glass vials. In a typical run all the reaction components but one were introduced into the vials inside an inert atmosphere glovebox, and vials were sealed with septum caps. The last reaction component to be added was placed in a Hamilton gastight syringe. The vials and syringes were then allowed to equilibrate inside the preheated instrument (65° C.) for 30 minutes. The reaction was started in all vials by depressing all of the syringes simultaneously. Two vials out of ten were charged only with solvent to obtain readings allowing for compensation for the heat of mixing. The thermograms registered in these two channels upon addition of the last component were used to construct the baseline for the other 8 channels.
Since heat is not transferred to the instrument sensor instantaneously, the thermogram registered by the instrument is dependent on the characteristics of the instrument and reaction vessel. Correction for these extraneous factors must be applied to the recorded thermograms to obtain instrument-independent data (Rosner, T.; et al. J. Am. Chem. Soc. 2001, 123, 1848-1855; Liu, J.-S.; et al. Thermochimica Acta 1994, 236, 113-122). The appropriate dynamic correction function is built into the instrument operating software. Use of vendor supplied software produces the same result as manual correction.
By the same token, catalysts such as Cu.1 that give observable, but not very strong, calorimetry signals cannot be fully analyzed by converting thermograms to completion curves, because a significant amount of the total energy output is lost below the detection threshold of the instrument. TBTA (1) falls into this category, classified as “moderate” ligands. […] However, peak power values (i.e., maximum reaction rate) provided a reproducible relative measure of relative catalytic efficiency.
Ligands were screened under the following conditions: 250 mM benzyl azide, 454 mM phenylacetylene, 2 mM CuSO4, 4 mM ligand, 25 mM sodium ascorbate. Phenylacetylene was the last component added. Initial screening was performed with at least two independent trials for each ligand. Candidates showing promising activity were then examined with at least three independent trials to obtain reliable estimations of experimental error.

Compound	ligand:Cu ratio of optimal performance (peak reaction power)
O=C([O-])Cn1c(CN(Cc2nc3ccccc3n2CC(=O)[O-])Cc2nc3ccccc3n2CC(=O)[O-])nc2ccccc21.[K+].[K+].[K+] [(BimC1A)3]	1:1
CCOC(=O)Cn1c(CN(Cc2nc3ccccc3n2CC(=O)OCC)Cc2nc3ccccc3n2CC(=O)OCC)nc2ccccc21 [(BimC1E)3, Triethyl 2,2′,2″-(2,2′,2″-nitrilotris(methylene)tris(1H-benzimidazole-2,1-diyl)) triethanoate]	2:1
CC(C)(C)OC(=O)Cn1c(CN(Cc2nc3ccccc3n2CC(=O)OC(C)(C)C)Cc2nc3ccccc3n2CC(=O)OC(C)(C)C)nc2ccccc21 [(BimC1E′)3]	2:1
Cn1c(CN(Cc2nc3ccccc3n2C)Cc2nc3ccccc3n2C)nc2ccccc21 [(BimC1H)3]	2:1
O=C([O-])CCCCn1c(CN(Cc2nc3ccccc3n2CCCCC(=O)[O-])Cc2nc3ccccc3n2CCCCC(=O)[O-])nc2ccccc21.[K+].[K+].[K+] [(BimC4A)3, Potassium 5,5′,5″-(2,2′,2″-nitrilotris(methylene)tris(1H-benzimidazole-2,1-diyl))tripentanoate]	2:1
O=S(=O)(O)c1ccc2[nH]c(CN(Cc3nc4cc(S(=O)(=O)O)ccc4[nH]3)Cc3nc4cc(S(=O)(=O)O)ccc4[nH]3)nc2c1 [(BimH/S)3, reference compound]	1:1
c1ccc(CN(Cc2ccccn2)Cc2ccccn2)nc1 [(Py)3, tris(pyridylmethyl)amine, reference compound]	2:1
